In publication PMC9343427:
These are yes or no findings as the source states them, for the method shown. Binding seen in cells or lysates may run through a third protein. Here binding means that the protein was enriched with, or labelled near, the bait; the list need not be complete.

Protein sequences, listed by entry. Tags and fused reporters are not part of them.
UniProt P18431: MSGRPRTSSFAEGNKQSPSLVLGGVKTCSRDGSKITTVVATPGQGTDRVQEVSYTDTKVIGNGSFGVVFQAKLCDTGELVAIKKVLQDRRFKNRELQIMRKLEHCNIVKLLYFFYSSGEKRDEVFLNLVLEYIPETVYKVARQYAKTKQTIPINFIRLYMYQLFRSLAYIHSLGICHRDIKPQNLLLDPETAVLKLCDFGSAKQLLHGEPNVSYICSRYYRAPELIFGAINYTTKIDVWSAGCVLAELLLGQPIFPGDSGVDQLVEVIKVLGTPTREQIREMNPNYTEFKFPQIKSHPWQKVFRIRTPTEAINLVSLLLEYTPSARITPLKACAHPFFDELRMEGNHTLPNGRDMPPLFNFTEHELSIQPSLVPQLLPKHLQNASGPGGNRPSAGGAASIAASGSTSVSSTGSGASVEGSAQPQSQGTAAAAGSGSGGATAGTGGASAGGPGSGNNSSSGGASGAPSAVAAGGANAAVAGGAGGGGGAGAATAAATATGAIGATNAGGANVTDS

B1: VDAC (Drosophila) (protein, UniProt Q94920 1-282)
chain: MAPPSYSDLGKQARDIFSKGYNFGLWKLDLKTKTSSGIEFNTAGHSNQESGKVFGSLETKYKVKDYGLTLTEKWNTDNTLFTEVAVQDQLLEGLKLSLEGNFAPQSGNKNGKFKVAYGHENVKADSDVNIDLKGPLINASAVLGYQGWLAGYQTAFDTQQSKLTTNNFALGYTTKDFVLHTAVNDGQEFSGSIFQRTSDKLDVGVQLSWASGTSNTKFAIGAKYQLDDDASVRAKVNNASQVGLGYQQKLRDGVTLTLSTLVDGKNFNAGGHKIGVGLELEA
B2: Tom40 (Drosophila) (protein, UniProt Q9U4L6 1-344)
chain: MGNVLAASSGAPGSGASNLGLGLQEPAPLPSNSGSLTESSSSAEGLDSLAAAKDAALENPGTVEELHKKCKDIQAITFEGAKIMLNKGLSNHFQVSHTINMSNVVPSGYRFGATYVGTKEFSPTEAFPVLLGDIDPAGNLNANVIHQFSARLRCKFASQIQESKVVASQLTTDYRGSDYTLSLTVANPSIFTNSGVVVGQYLQSVTPALALGSELAYQFGPNVPGRQIAIMSVVGRYTAGSSVWSGTLGQSGLHVCYYQKASDQLQIGAEVETSLRMQESVATLAYQIDLPKANLVFRGGIDSNWQIFGVLEKRLAPLPFTLALSGRMNHVKNNFRLGCGLMIG

Target: GSK3-APEX2 (Drosophila) (UniProt P18431)
Assay: proximity labelling; GSK3-APEX2 expressed in germ cells of the Drosophila ovary; 500 uM biotin-phenol for 30 min, 1 mM H2O2 for 1 min; mitochondria isolated and lysed in RIPA; biotinylated proteins enriched on streptavidin beads; mass spectrometry; compared with CD8-APEX2 controls, logFC cut-off …

Binder	binding
B1	binds
B2	binds
